Results are given in words; binding and its absence hold for the method and conditions named. Some results given as binding are weak or reduced against the parent protein; the word gives no strength.
Columns and labels:
[1] = molecular target: antigen DR5 (human death receptor 5), immobilised on the CM5 chip (human) (UniProt O14763); test: SPR (Biacore X100), DR5 immobilised on CM5 chip, antibody injected as analyte
[2] = molecular target: antigen DR5 (human death receptor 5), immobilised on the CM5 chip (human) (UniProt O14763); test: SPR, Biacore X100, DR5 amine-coupled to CM5 chip, antibody as analyte

Amino acid sequences for entries named in this document (tags omitted). Residues count along the entry.
UniProt O14763, residues 56-182: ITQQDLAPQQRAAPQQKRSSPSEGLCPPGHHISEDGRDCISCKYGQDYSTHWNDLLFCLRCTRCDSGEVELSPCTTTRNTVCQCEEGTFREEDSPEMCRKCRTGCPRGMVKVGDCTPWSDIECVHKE

B1: humanized anti-human DR5 monoclonal antibody AD10 (antibody, human IgG1, kappa, V domains shown)
VH: EIQLVQSGPELKKPGASVKVSCKASGYTFTDFSMNWVRQAPGQGLKWMGWINTETGEPTYADDFKGRFALSMDTSVSTAYLQISSLKAEDTAVYFCVRIDYWGQGTTVTVSS
VL: DIVMTQSPLSLPVTPGEPASISCRSSQSLVHSNGNTYLHWYLQKPGQSPQLLIYKVSNRFSGVPDRFSGSGSGTDFTLKISRVEAEDVGVYYCFQSTHVPHTFGQGTKLEIKR
- binding [1]: binds
- binding [2]: binds

— patent US20150353638A1
